Taken from: PubChem BioAssay AID1224826 (NIAID, 2016)
Purpose: 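Genes that change LPS-induced Tnf promoter activity in mouse macrophages when knocked down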 (primary screen). Cells: RAW264.7 G9 macrophages from mouse bearing reporters for p65 (GFP) and the Tnf promoter (mCherry). Knock-down reagent: siRNA pool against mouse genes, 100 nM. Timing: 16 h of LPS stimulation, after 2 days of siRNA transfection. Challenge: bacterial lipopolysaccharide (Salmonella minnesota R595), 10 ng/ml. Detection: 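Imaged Tnf reporter mCherry in nuclei, minus background, normalised per plate to the median and expressed as robust z-scores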. Reading the numbers: Tnf reporter robust z-score: higher = stronger Tnf promoter reporter signal after LPS. Active means: 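Called active when robust z-score is at most -1.3, matching the median of the Tlr4 knock-down control, or over 3; control wells and wells with under 50 cells never active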. Calls: active = Tnf reporter clearly lowered or raised; inactive = no clear change in Tnf reporter.
This is an unselected part of about 17,000 deposited reagents. About 1,110 of all reagents (6.6%) were called active. 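Active means lowered or raised reporter signal; replicate intensities are raw and not normalised per plate.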 Further read-outs or replicates are left out here.

Doc2b
- Tnf reporter robust z-score: -0.06
- fewer than 50 cells in well: enough cells in well
- Call: inactive

Lamc1
- Tnf reporter robust z-score: -0.5
- fewer than 50 cells in well: enough cells in well
- Call: inactive

Pcbd1
- Tnf reporter robust z-score: 0.35
- fewer than 50 cells in well: enough cells in well
- Call: inactive

Prkci
- Tnf reporter robust z-score: 0.36
- fewer than 50 cells in well: enough cells in well
- Call: inactive

Erp27
- fewer than 50 cells in well: fewer than 50 cells per well; well left out of calls
- Call: inactive

Or2ag15
- Tnf reporter robust z-score: 2.15
- fewer than 50 cells in well: enough cells in well
- Call: inactive

Cyp27b1
- Tnf reporter robust z-score: -0.75
- fewer than 50 cells in well: enough cells in well
- Call: inactive

Pkn3
- Tnf reporter robust z-score: 0.69
- fewer than 50 cells in well: enough cells in well
- Call: inactive

BC028528
- Tnf reporter robust z-score: 1.26
- fewer than 50 cells in well: enough cells in well
- Call: inactive

Slc47a1
- Tnf reporter robust z-score: -0.05
- fewer than 50 cells in well: enough cells in well
- Call: inactive

Nsl1
- fewer than 50 cells in well: fewer than 50 cells per well; well left out of calls
- Call: inactive

Marveld3
- Tnf reporter robust z-score: 2.04
- fewer than 50 cells in well: enough cells in well
- Call: inactive

Nrcam
- Tnf reporter robust z-score: 0.33
- fewer than 50 cells in well: enough cells in well
- Call: inactive

Pyurf
- Tnf reporter robust z-score: -1.1
- fewer than 50 cells in well: enough cells in well
- Call: inactive
